Measurements reported in PubChem BioAssay AID493246 (Drosophila RNAi Screening Center, 2011).
The deposit covers about 21,000 reagents; shown is a random part of those that have a named target and a result. In the full data, 429 (2%) got an active call. 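Values are raw and not normalised between plates; calls rest on per-plate z-scores that were not deposited.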 Not stated in the record: the amount of reagent, the time to read-out.

Aim: 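Genes fly cells need to grow and stay alive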 (primary screen)
Cell system: Drosophila Kc and S2R+ cells
Knock-down reagent: long dsRNA against Drosophila genes
Measurement: 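Cell number per well after knock-down, printed as raw plate values; calls were based on per-plate z-scores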
Reading the numbers: Kc cell number and S2R+ cell number: higher = more cells remaining
Call rule: 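Active when the per-plate z-score of cell number is 3 or more in the direction of fewer cells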

Silencing of CG31251 [SID104196039] came out at: Kc cell number, rep 1 = 1.11e6; Kc cell number, rep 2 = 1.35e6; S2R+ cell number, rep 1 = 1.01e6; S2R+ cell number, rep 2 = 1.09e6; inactive.
Against Mtpalpha [SID104181786], the entry reads Kc cell number, rep 1 = 1.26e6; Kc cell number, rep 2 = 1.31e6; S2R+ cell number, rep 1 = 1.13e6; S2R+ cell number, rep 2 = 1.19e6; inactive.
With knock-down of Grik [SID104195638] the results were Kc cell number, rep 1 = 1.59e6; Kc cell number, rep 2 = 1.72e6; S2R+ cell number, rep 1 = 1.21e6; S2R+ cell number, rep 2 = 1.32e6; inactive.
Grik [SID104195639] gave Kc cell number, rep 1 = 1.15e6; Kc cell number, rep 2 = 1.13e6; S2R+ cell number, rep 1 = 1.11e6; S2R+ cell number, rep 2 = 1.21e6; inactive.
Depletion of Polr1B [SID104180572] came out at: Kc cell number, rep 1 = 1.31e6; Kc cell number, rep 2 = 1.33e6; S2R+ cell number, rep 1 = 9.12e5; S2R+ cell number, rep 2 = 9.32e5; inactive.
geko [SID104189836] scored Kc cell number, rep 1 = 1.20e6; Kc cell number, rep 2 = 1.36e6; S2R+ cell number, rep 1 = 1.29e6; S2R+ cell number, rep 2 = 1.41e6; inactive.
After knock-down of geko [SID104189837], the screen gave Kc cell number, rep 1 = 1.41e6; Kc cell number, rep 2 = 1.57e6; S2R+ cell number, rep 1 = 1.36e6; S2R+ cell number, rep 2 = 1.45e6; inactive.

No new results follow: 2 of the entries above.
Polr1B [SID104180572] → Kc cell number, rep 1: 1.31e6; Kc cell number, rep 2: 1.33e6; S2R+ cell number, rep 1: 9.12e5; S2R+ cell number, rep 2: 9.32e5; call: inactive
geko [SID104189836] → Kc cell number, rep 1: 1.20e6; Kc cell number, rep 2: 1.36e6; S2R+ cell number, rep 1: 1.29e6; S2R+ cell number, rep 2: 1.41e6; call: inactive

Additional records follow.
After knock-down of Nbr [SID104182958], the record shows Kc cell number, rep 1 = 1.24e6; Kc cell number, rep 2 = 1.29e6; S2R+ cell number, rep 1 = 1.11e6; S2R+ cell number, rep 2 = 1.15e6; inactive.
Silencing of uzip [SID104184514] came out at: Kc cell number, rep 1 = 1.41e6; Kc cell number, rep 2 = 1.47e6; S2R+ cell number, rep 1 = 1.07e6; S2R+ cell number, rep 2 = 1.08e6; inactive.
CG42729 [SID104190028] scored Kc cell number, rep 1 = 1.69e6; Kc cell number, rep 2 = 1.60e6; S2R+ cell number, rep 1 = 1.20e6; S2R+ cell number, rep 2 = 1.35e6; inactive.
Depletion of CG11113 [SID104185831] resulted in: Kc cell number, rep 1 = 1.66e6; Kc cell number, rep 2 = 1.62e6; S2R+ cell number, rep 1 = 1.37e6; S2R+ cell number, rep 2 = 1.56e6; inactive.
Depletion of Edg91 [SID104196449] gave: Kc cell number, rep 1 = 1.50e6; Kc cell number, rep 2 = 1.47e6; S2R+ cell number, rep 1 = 1.04e6; S2R+ cell number, rep 2 = 1.09e6; inactive.
After knock-down of Or67a [SID104191032], the screen gave Kc cell number, rep 1 = 1.36e6; Kc cell number, rep 2 = 1.25e6; S2R+ cell number, rep 1 = 1.30e6; S2R+ cell number, rep 2 = 1.43e6; inactive.
wash [SID104186094] gave Kc cell number, rep 1 = 1.54e6; Kc cell number, rep 2 = 1.56e6; S2R+ cell number, rep 1 = 1.19e6; S2R+ cell number, rep 2 = 1.26e6; inactive.
